# Laboratory results reported in PubChem BioAssay (Tox21).
# Protein sequences, listed by entry. Tags and fused reporters are not part of them.
# UniProt P28223, whole entry, looked up: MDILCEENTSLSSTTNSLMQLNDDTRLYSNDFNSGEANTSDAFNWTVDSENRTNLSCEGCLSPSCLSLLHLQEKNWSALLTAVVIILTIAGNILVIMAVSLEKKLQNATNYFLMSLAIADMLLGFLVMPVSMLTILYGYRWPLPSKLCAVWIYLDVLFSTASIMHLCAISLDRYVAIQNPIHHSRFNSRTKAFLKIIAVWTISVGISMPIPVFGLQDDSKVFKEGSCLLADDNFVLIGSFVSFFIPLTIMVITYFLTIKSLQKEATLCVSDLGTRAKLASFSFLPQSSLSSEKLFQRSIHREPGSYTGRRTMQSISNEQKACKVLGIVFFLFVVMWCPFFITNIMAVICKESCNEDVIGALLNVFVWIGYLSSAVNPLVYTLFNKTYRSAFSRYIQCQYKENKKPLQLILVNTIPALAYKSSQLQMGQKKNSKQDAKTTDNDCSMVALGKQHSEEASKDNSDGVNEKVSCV
# UniProt P14416, whole entry, looked up: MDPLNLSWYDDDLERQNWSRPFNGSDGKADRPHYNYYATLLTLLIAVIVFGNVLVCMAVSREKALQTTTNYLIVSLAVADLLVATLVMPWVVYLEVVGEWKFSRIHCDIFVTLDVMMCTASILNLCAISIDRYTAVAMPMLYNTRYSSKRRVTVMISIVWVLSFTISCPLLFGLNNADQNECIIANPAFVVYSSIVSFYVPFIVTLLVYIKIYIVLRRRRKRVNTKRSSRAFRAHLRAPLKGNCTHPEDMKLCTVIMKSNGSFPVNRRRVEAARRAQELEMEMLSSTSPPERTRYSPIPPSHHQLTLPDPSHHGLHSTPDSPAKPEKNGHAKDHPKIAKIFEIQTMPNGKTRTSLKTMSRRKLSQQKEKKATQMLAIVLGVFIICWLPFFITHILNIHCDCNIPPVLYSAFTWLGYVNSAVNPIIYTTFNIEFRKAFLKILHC
# “And” between values parts separate entries of the source, which are not always exact repeats. Identical values can stand only once. Inconclusive means that the source gave no clear call. Such entries were picked first, then a sample of the others. For some of these results: Potencies of inconclusive entries are doubtful fits and often do not repeat. The source made the active and inactive calls. Unless noted, calls come from the whole dose curve.
# Tests used:
# [1] = p53 small molecule agonists, cell-based qHTS assay: qHTS cell viability counter screen (AID 1963581); note: nearly all actives have a fitted effect of over 45% in size
# Method in brief: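 Following 5 h attachment, HCT-116 p53RE-bla cells took up compound for 16 h at 37 C; the reporter was read with B/G FRET substrate (2 h RT), and viability then via CellTiter-Glo ATP luminescence.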
# [2] = target: 5-hydroxytryptamine receptor 2A (Homo sapiens) (UniProt P28223); assay: 5-hydroxytryptamine receptor 2A (HTR2A) small molecule antagonists, cell-based qHTS assay (AID 1963586); note: nearly all actives have a fitted effect of over 45% in size
# Method in brief: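 Antagonist-mode intracellular calcium assay: DOI (4 nM) added after 5 min compound pre-incubation at room temperature to dye-loaded HTR2A-CHO cells. Fluorescence followed for 3 min, sampled every second.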
# [3] = cAMP Responsive Elements (CRE) small molecule antagonists, cell-based qHTS assay (AID 1963591; active = well fitted inhibition curve with a large enough effect in the signal ratio in the repeat runs, not every such curve was filed as active; inconclusive = weak or mixed curves, or effect the other way; the % refers to the signal ratio); conditions: CRE-bla HEK293T, beta-lactamase FRET ratio
# Method in brief: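 HEK293T cells carrying a CRE-driven beta-lactamase reporter receive compound and NKH477 (0.25 uM final) for 3 h. Fluorescence from LiveBLAzer B/G FRET substrate is read after 2 h at room temperature.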
# [4] = target: Beta-2 adrenergic receptor (Homo sapiens) (UniProt P07550); assay: Adrenergic beta2 receptor (ADRB2) small molecule agonists, cell-based qHTS assay (AID 1963593); conditions: CHO-ADRB2 cells, cAMP HTRF, 30 min;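 for activation: CHO cells stably overexpressing human ADRB2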
# Method in brief: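 CHO cells stably over-expressing ADRB2 were plated overnight at 37C, then dosed with compounds plus a stimulation mix containing 100uM IBMX and 25uM Ro-20-1724 for 0.5hr at room temperature. cAMP was measured by HTRF competition, 1hr.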
# [5] = cAMP Responsive Elements (CRE) small molecule agonists, cell-based qHTS assay (AID 1963590); conditions: CRE-bla HEK293T, beta-lactamase FRET ratio, 3 h; activation: at 92.4 µM (top of the series) unless noted
# Method in brief: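 A CRE-responsive beta-lactamase reporter in HEK 293T cells was used. Treatment ran 3 h at 37 C; detection used LiveBLAzer B/G FRET substrate for 2 h at room temperature.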
# [6] = target: Beta-2 adrenergic receptor (Homo sapiens) (UniProt P07550); assay: Adrenergic beta2 receptor (ADRB2) small molecule antagonists, cell-based qHTS assay (AID 1963592); conditions: CHO-ADRB2 cells, isoproterenol-stimulated cAMP HTRF ratio, 0.5 h; activity change, negative = inhibition: at 92.4 µM (top of the series) unless noted; note: nearly all actives have a fitted effect of over 50% in size
# Method in brief: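 Cells (CHO, stable ADRB2 overexpression) incubated 18-20hr at 37C; compounds added from DMSO; agonist mix (1nM isoproterenol, 100uM IBMX, 25uM Ro-20-1724) added; 0.5hr RT; d2-cAMP and anti-cAMP-cryptate added; 1hr RT; 665/615 nm read.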
# [7] = target: D(2) dopamine receptor (Homo sapiens) (UniProt P14416); assay: Dopamine D2 receptor (DRD2) small molecule agonists, cell-based qHTS assay (AID 1963594); conditions: HEK293-DRD2 cAMP HTRF, agonist mode, 30 min; activation: at 92.4 µM (top of the series) unless noted; note: nearly all actives have a fitted effect of over 35% in size
# Method in brief: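 HEK293 cells stably expressing human DRD2, pre-treated with PDE inhibitor Ro20-1724 (0.1 mM final) and compound 10 min at room temperature, then stimulated with NKH477 (200nM […]) for 30 min. cAMP read by HTRF (665/620 nm).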
# [8] = target: 5-hydroxytryptamine receptor 2A (Homo sapiens) (UniProt P28223); assay: 5-hydroxytryptamine receptor 2A (HTR2A) small molecule agonists, cell-based qHTS assay (AID 1963587); note: nearly all actives have a fitted effect of over 30% in size
# Method in brief: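 CHO cells stably expressing human HTR2A, plated 18 h, loaded with calcium dye 1 h at 37 C. Agonist mode: compounds added and intracellular calcium fluorescence recorded kinetically for 2 min at 1 sec intervals.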
# [9] = target: D(2) dopamine receptor (Homo sapiens) (UniProt P14416); assay: Dopamine D2 receptor (DRD2) small molecule antagonists, cell-based qHTS assay (AID 1963595; active = well fitted inhibition curve with a large enough effect in the signal ratio in the repeat runs, with a control signal flat; inconclusive = weak or mixed curves, or effect the other way; the % refers to the signal ratio); conditions: HEK293-DRD2 cAMP HTRF antagonist mode; activity change, negative = inhibition: at 92.4 µM (top of the series) unless noted
# Method in brief: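 In this cell-based antagonist screen, compounds act for 10 min at room temperature before a 30 min challenge with 12 nM quinpirole and 200 nM NKH477. cAMP is quantified by HTRF competition in DRD2-HEK293 cells containing 0.1 mM Ro20-1724.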
# [10] = activity change, negative = inhibition: at 92.4 µM (top of the series) unless noted
# [11] = activation: at 92.4 µM (top of the series) unless noted
# % is set by controls: 0 for no effect and ±100 for the full control effect; potency is the fitted concentration of half-maximal effect.
structure (smiles),measurement,setting,value
CCOC(=O)c1cnc2c(cnn2CC)c1NN=C(C)C,Potency,[1],inactive
same,Potency,[2],"inconclusive: 0.206 µM [inhibitor, partial curve, poor fit]"
same,Potency,[3]; [10],"inconclusive: 6.68 µM [activator, full curve]"
same,activation,[4]; [11],inconclusive: -23% [at 42.5 µM]
Oc1ccc(C2CNCCc3c2cc(O)c(O)c3Cl)cc1 (centres undefined),Potency,[1],"inconclusive: 22.3 µM [cytotoxic, single point]"
same,Potency,[2],active: 0.259 µM
same,Potency,[5],inactive
same,"activity change, negative = inhibition",[6],inconclusive: -16.7% [at 42.5 µM]
same,Potency,[4]; [11],"inconclusive: 26.6 µM [inhibitor, partial curve]"
Cc1ccc(S)cc1,Potency,[1],inactive
same,Potency,[2],active: 42.1 µM
same,Potency,[5],"inconclusive: 61.1 µM [rising, partial curve]"
same,"activity change, negative = inhibition",[3]; [10],inconclusive: -5.14%
COc1ccccc1OC(=O)Oc1ccccc1OC,Potency,[1],"inconclusive: 0.0397 µM [rising, partial curve]"
same,Potency,[2],inactive
same,Potency,[3]; [10],inactive
OCc1cccc(Oc2ccccc2)c1,Potency,[1],inactive
same,Potency,[2],"inconclusive: 0.381 µM [inhibitor, full curve, poor fit]"
same,activation,[4]; [11],inconclusive: -66.4%
N#Cc1cscn1,Potency,[1],inactive
same,Potency,[2],inactive
same,Potency,[4]; [11],"inconclusive: 2.43 µM [inhibitor, single point]"
CCC(C)c1ccccc1O (centres undefined),Potency,[1],"inconclusive: 0.204 µM [rising, partial curve, poor fit]"
same,Potency,[2],"inconclusive: 0.0033 µM [inhibitor, full curve, poor fit]"
same,"activity change, negative = inhibition",[3]; [10],inconclusive: -23.1%
same,"activity change, negative = inhibition",[3]; at 92.4 µM (top of the series),inactive: -7.52%
same,activation,[4]; [11],inconclusive: -53.8%
same,activation,[7],inconclusive: -25.8%
COc1ccc2nc(NC(=O)Nc3ccccc3)sc2c1,Potency,[1],"inconclusive: 5.61 µM [cytotoxic, single point]"
same,Potency,[2],inactive
same,Potency,[3]; [10],inactive
same,Potency,[6],active: 11.9 µM
same,Potency,[4]; [11],"inconclusive: 1.68 µM [inhibitor, full curve]"
CN(C)CCOCCO,Potency,[1],inactive
same,Potency,[8],"inconclusive: 54.4 µM [activator, partial curve, poor fit]"
same,"activity change, negative = inhibition",[3]; [10],inconclusive: -5.11%
same,Potency,[4]; [11],"inconclusive: 17.1 µM [inhibitor, partial curve, poor fit]"
CCn1c2ccccc2c2cc([N+](=O)[O-])ccc21,Potency,[1],"inconclusive: 10.2 µM [cytotoxic, single point]"
same,Potency,[8],inactive
same,Potency,[5],"inconclusive: 54.5 µM [activator, partial curve, poor fit]"
same,Potency,[4]; [11],"inconclusive: 68.6 µM [inhibitor, partial curve, poor fit]"
NCCC(O)(P(=O)(O)O)P(=O)(O)O,Potency,[1],inactive
same,Potency,[2],inactive
same,Potency,[9],inactive
CCC(C(=O)OCCOCCN(CC)CC)c1ccccc1 (centres undefined),Potency,[1],inactive
same,Potency,[8],active: 2.68 µM
same,Potency,[5],inactive
same,Potency,[4]; [11],inactive
CCC1NC(=O)c2cc(S(N)(=O)=O)c(Cl)cc2N1 (centres undefined),Potency,[1],"inconclusive: 0.224 µM [cytotoxic, single point]"
same,Potency,[8],"inconclusive: 26.8 µM [activator, single point]"
same,Potency,[5],"inconclusive: 0.0106 µM [falling, full curve, poor fit]"
same,Potency,[4]; [11],inactive
same,Potency,[9],"inconclusive: 16.8 µM [inhibitor, single point]"
Cc1ccc(S(=O)(=O)NC(=O)NC2CCCCCCC2)cc1,Potency,[1],inactive
same,Potency,[2],inactive
same,Potency,[5],inactive
same,Potency,[9],inactive
Cc1ccc(S(=O)(=O)NC(=O)NC2CCCCC2)cc1,Potency,[1],inactive
same,Potency,[2],"inconclusive: 20.5 µM [inhibitor, single point]"
same,activation,[4]; [11],inconclusive: -33.2% [at 42.5 µM]
O=C(O)CS,Potency,[1],"inconclusive: 46.2 µM [rising, single point]"
same,Potency,[8],"inconclusive: 44 µM [activator, partial curve, poor fit]"
same,Potency,[5],"inconclusive: 30.9 µM [fluorescent, partial curve]"
same,"activity change, negative = inhibition",[3]; [10],inconclusive: 8.42%
same,Potency,[4]; [11],"inconclusive: 11 µM [inhibitor, full curve, poor fit]"
same,activation,[4]; [11],inconclusive: 9.31%
same,activation,[4]; at 92.4 µM (top of the series),inactive: -3.99%
same,Potency,[7],"inconclusive: 69.1 µM [rising, partial curve, poor fit]"
CCC(C)OC(=O)c1ccc(O)cc1 (centres undefined),Potency,[1],inactive
same,Potency,[8],inactive
same,Potency,[5],"inconclusive: 77 µM [rising, partial curve, poor fit]"
same,"activity change, negative = inhibition",[3]; [10],inconclusive: -22%
same,"activity change, negative = inhibition",[6],inconclusive: -31.7%
same,Potency,[4]; [11],"inconclusive: 69 µM [inhibitor, single point] and inconclusive: 6.11 µM [inhibitor, partial curve, poor fit]"
CCC(C)COC(C)=O (centres undefined),Potency,[1],inactive
same,Potency,[2],inactive
same,Potency,[5],inactive
same,Potency,[3]; [10],inactive
same,activation,[4]; [11],inconclusive: 44.6%
